Patent publication US8445240B2, “Termite enzymes and uses thereof for in vitro conversion of lignin-containing materials to fermentable products” (University of Florida Research Foundation, Inc., priority 2009, dated 2013)

Assay: Colorimetric β-1,4-endoglucanase assay of Cell-1 on CMC
Format: biochemical
Details: BEVS-expressed
Description: Colorimetric β-1,4-endoglucanase enzyme assays: Six total substrates were tested: CMC (carboxymethyl cellulose), pNPG (p-nitrophenyl-beta-D-glucopyranoside), pNPC2 (p-nitrophenyl-beta-D-cellobioside), pNPC3 (p-nitrophenyl-beta-D-cellotrioside), pNPC4 (p-nitrophenyl-beta-D-cellotetraoside), and pNPC5 (p-nitrophenyl-beta-D-cellopentaoside). All assay methods were carried out under optimal conditions (Zhou et al., (2007) Gene 395:29-39).
(FIG. 7). For subsequent characterizations, the 1.5% CMC concentration was used. pH studies were performed by dissolving 1.5% CMC in two different buffer systems: 100 mM sodium acetate (pH 3-6.5) and 100 mM sodium phosphate (pH 7-10.5), as shown in FIG. 8. […] Temperature-cofactor studies were performed using 1.5% CMC dissolved in 100 mM sodium phosphate (pH 7) alone, plus 4 mM EDTA (final concentration), or plus 10 mM calcium chloride (final concentration). Pre-incubations took place for 0-5 days at 25° C. or 0-60 min at 60° C. or 70° C.; reactions were terminated by the combination of adding stop solution and boiling for 10 min, and then assays were read at 25° C. (FIG. 9).

B1: Cell-1: host-derived β-1,4-endoglucanase (GHF9) from Reticulitermes flavipes, SEQ ID NO.: 2; recombinant, BEVS or E. coli expressed (protein)
chain: MKVFVCLLSALALCQAAYDYKTVLSNSLLFYEAQRSGKLPSDQKVTWRKDSALNDKGQKGEDLTGGYYDAGDFVKFGFPMAYTVTVLAWGVIDYESAYSAAGALDSGRKALKYGTDYFLKAHTAANEFYGQVGQGDVDHAYWGRPEDMTMSRPAYKIDTSKPGSDLAAETAAALAATAIAYKSADATYSNNLITHAKQLFDFANNYRGKYSDSITDAKNFYASGDYKDELVWAAAWLYRATNDNTYLTKAESLYNEFGLGNWNGAFNWDNKISGVQVLLAKLTSKQAYKDKVQGYVDYLISSQKKTPKGLVYIDQWGTLRHAANSALIALQAADLGINAATYRAYAKKQIDYALGDGGRSYVVGFGTNPPVRPHHRSSSCPDAPAVCDWNTYNSAGPNAHVLTGALVGGPDSNDSYTDARSDYISNEVATDYNAGFQSAVAGLLKAGV
modifications: Reticulitermes flavipes; amino acid sequence Beta-1,4-endoglucanase (Cell-1)
notes: recombinant, BEVS or E. coli expressed
1.5% CMC, listed as BEVS-expressed Cell-1
  pH of maximal/optimal CMC activity: around neutral pH
Sodium phosphate buffer pH 7
  temperature of maximal CMC activity: 50-60 °C
